# Test results published in patent US20110251144A1, “MOLECULAR MODULATORS OF THE WNT/BETA-CATENIN PATHWAY” (MASSACHUSETTS INSTITUTE OF TECHNOLOGY, priority 2008, published 2011).
# How the values were obtained:
# [1] = system: Wnt/β-catenin signaling (beta-catenin activated reporter, BAR); assay: High throughput small molecule screen, beta-catenin activated reporter (BAR) in HT22 cells; type: cell-based, mouse; conditions: growth media and WNT3A stimulus
# Description: Compounds were dissolved in dimethylsulphoxide (DMSO). For the primary screen, performed in duplicate, HT22 cells stably expressing the beta-catenin activated reporter (BAR) were cultured in growth medium (DMEM/10% FBS/1% antibiotic). 3000 cells per well were transferred to 384-well clear bottom plates (Nalgene Nunc; Rochester, N.Y.) in 30 μL of growth medium. The following day, […] of compound and 10 μL of either growth media or WNT3A conditioned media (E.C.50 dose) was transferred to the cells. The next day each well was imaged using transmitted light with the ImageXpress Micro (Molecular devices; Sunnyvale, Calif.) followed by the addition of 10 μL of Steady-Glo (Promega; Madison, Wis.) as per the manufacture's instructions, and luminescence measurement on an EnVision Multilabel plate reader (PerkinElmer; Waltham, Mass.). Viability was scored by analyzing the ImageXpress images. As described in detail in Seiler et al. (Seiler et al., Nucleic Acids Res. 36:D351 (2008), which is hereby incorporated by reference in its entirety), each compound well received an algebraically signed Z-score corresponding to the number of standard deviations it fell above or below the mean of a well-defined mock-treatment distribution of DMSO controls. […] The fold-increase over the background of DMSO controls for each treatment was also calculated. […]
# [2] = system: Axin2, Si/Gp100, Kit and other melanocytic genes; assay: Quantitative PCR of endogenous gene targets in B16 melanoma cells; type: cell-based, murine; conditions: in the presence of WNT3A conditioned media
# Description: Cells were cultured for approximately 72 hours until they reached 80-90% confluency. RNA was purified using the RNeasy kit using the manufacturer's protocol (Qiagen; Maryland, MD). cDNA was synthesized using Superscript Reverse Transcriptase (Invitrogen; Grand Island, N.Y.). […] Quantitative PCR results presented in the manuscript are representative of experiments performed on a minimum of three biologic replicates.
smiles,measurement,setting,value
Nc1nc2ccc(OC(F)(F)F)cc2s1 [riluzole],Activation of Wnt/β-catenin-responsive luciferase reporter in the primary screen,[1],activated Wnt/β-catenin signaling on their own as well as in synergy with WNT3A
same,"Transcription of endogenous Axin2, Si/Gp100 and Kit",[2],dose-dependent synergy
